Measurements published in article PMC3033427, “Role of the Small GTPase Rho3 in Golgi/Endosome Trafficking through Functional Interaction with Adaptin in Fission Yeast” (PLoS ONE, 2011).
Where a chain is given by its changes, count along the chain named. Names and notes keep the numbering of the source. These are yes or no findings as the source states them, for the method shown. In cells and extracts the contact can be indirect. Some binding calls cover weakened binding; strength is not graded here. Sequences can lack the tags named with a protein.

T1: GST-Aps1 (purified full-length Aps1 fused to GST) (S. pombe) (UniProt Q9P7N2)
T1 sequence: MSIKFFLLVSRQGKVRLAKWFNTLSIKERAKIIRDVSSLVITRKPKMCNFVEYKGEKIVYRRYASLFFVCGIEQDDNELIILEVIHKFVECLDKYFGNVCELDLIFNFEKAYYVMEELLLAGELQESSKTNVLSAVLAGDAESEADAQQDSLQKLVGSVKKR

T2: Apl4-GST (purified full-length Apl4 fused to GST) (S. pombe) (UniProt Q9UU81)
T2 sequence: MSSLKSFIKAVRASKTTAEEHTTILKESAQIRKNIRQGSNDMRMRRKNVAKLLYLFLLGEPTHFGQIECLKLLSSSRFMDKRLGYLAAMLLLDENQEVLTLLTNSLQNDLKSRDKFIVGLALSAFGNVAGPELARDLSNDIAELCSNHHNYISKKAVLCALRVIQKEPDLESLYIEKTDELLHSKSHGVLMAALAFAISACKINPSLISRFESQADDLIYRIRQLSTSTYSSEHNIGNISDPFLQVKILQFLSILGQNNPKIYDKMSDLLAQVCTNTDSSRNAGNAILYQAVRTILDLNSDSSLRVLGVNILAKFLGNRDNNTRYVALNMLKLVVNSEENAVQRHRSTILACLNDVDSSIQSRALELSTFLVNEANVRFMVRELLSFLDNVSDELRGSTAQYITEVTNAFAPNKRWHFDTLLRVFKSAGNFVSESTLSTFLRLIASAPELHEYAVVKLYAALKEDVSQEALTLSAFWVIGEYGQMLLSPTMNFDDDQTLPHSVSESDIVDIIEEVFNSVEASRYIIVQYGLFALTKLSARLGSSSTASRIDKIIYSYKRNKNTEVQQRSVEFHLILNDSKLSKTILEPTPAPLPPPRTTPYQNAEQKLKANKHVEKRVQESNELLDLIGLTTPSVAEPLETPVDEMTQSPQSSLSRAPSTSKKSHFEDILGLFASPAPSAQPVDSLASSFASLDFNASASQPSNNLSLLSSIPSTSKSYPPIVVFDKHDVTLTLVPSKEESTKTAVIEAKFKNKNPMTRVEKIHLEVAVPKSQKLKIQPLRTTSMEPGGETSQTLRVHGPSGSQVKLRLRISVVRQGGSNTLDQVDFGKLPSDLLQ

T3: GST-Apl2 (purified full-length Apl2 fused to GST) (S. pombe) (UniProt O43079)
T3 sequence: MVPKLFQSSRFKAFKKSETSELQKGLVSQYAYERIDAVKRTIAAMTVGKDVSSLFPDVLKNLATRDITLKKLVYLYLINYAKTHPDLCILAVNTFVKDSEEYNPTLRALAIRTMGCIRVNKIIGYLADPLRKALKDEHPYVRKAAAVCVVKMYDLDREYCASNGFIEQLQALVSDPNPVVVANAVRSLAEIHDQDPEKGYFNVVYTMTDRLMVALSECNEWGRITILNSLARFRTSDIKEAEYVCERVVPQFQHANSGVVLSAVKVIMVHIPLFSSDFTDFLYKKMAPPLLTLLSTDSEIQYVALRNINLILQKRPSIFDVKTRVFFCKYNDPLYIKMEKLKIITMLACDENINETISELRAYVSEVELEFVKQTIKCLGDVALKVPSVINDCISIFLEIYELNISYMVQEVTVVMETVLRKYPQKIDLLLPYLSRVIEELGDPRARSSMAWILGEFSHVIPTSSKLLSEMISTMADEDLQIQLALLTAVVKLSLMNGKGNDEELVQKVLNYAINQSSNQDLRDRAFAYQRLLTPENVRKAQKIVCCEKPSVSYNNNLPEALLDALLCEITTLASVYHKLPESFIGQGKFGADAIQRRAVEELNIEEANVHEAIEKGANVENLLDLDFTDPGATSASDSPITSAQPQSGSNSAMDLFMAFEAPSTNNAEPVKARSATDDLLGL

T4: Apm1-GST (purified full-length Apm1 fused to GST) (S. pombe) (UniProt Q9HFE5)
T4 sequence: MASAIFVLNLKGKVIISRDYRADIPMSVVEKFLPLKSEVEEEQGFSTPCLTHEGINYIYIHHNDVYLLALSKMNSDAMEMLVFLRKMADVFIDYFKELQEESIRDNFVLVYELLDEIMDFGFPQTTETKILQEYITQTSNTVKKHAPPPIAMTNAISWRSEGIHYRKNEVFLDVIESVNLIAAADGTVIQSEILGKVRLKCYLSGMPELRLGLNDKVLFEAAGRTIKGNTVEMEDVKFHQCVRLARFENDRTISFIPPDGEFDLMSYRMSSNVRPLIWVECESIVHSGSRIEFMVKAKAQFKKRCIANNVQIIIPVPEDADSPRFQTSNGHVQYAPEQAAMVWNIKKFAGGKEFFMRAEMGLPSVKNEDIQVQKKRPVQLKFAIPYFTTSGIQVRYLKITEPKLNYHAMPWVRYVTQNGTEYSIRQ

B1: GFP-Rho3 (wild-type Rho3 fused to GFP) (natural protein, S. pombe, UniProt O13928 1-205, looked up)
chain: MSSCFGSKKKPIYRKIVILGDGAAGKTSLLNVFTKGYFPQVYEPTIFENYIHDIFVDGNSIELSLWDTAGQEEYDQLRSLSYSDTHVIMICFAVDSRDSLENVITKWLPEVSSNCPGVKLVLVALKCDLRGADEEQVDHSKIIDYEEGLAAAKKINAVRYLECSAKLNRGVNEAFTEAARVALAAQPRGTKDGADESHGTGCIIA
notes: Rho3, Rho-family small GTPase of S. pombe (SPAC23C4.08); complete open reading frame amplified from genomic DNA, first methionine as in the Sanger Institute database; The name GFP-Rho3 puts GFP at the N-terminus, but the methods say the ORF 'was ligated to the N-terminus of the GFP'; also called GFP-fused Rho3; source: S. pombe cells, overexpressed from the inducible nmt1 promoter, …
B2: GFP-Rho3E48V (effector domain mutant of Rho3 fused to GFP) (natural protein, S. pombe, UniProt O13928 1-205, looked up)
chain: B1 chain with E48V
notes: Rho3 of S. pombe (SPAC23C4.08), complete open reading frame, Glu48 changed to Val by site-directed mutagenesis; Analogue of the budding yeast rho3-V51 mutant; also called Rho3EV; GFP-Rho3EV; source: S. pombe cells, overexpressed from the inducible nmt1 promoter, in lysate (pull-down); not shown: GFP (S65T), N-terminal, kept
B3: GFP-Rho3G22V (GTP-locked variant of Rho3 fused to GFP) (natural protein, S. pombe, UniProt O13928 1-205, looked up)
chain: B1 chain with G22V
notes: Rho3 of S. pombe (SPAC23C4.08), complete open reading frame, Gly22 changed to Val by site-directed mutagenesis; also called Rho3GV; GFP-Rho3GV; source: S. pombe cells, overexpressed from the inducible nmt1 promoter, in lysate (pull-down); not shown: GFP (S65T), N-terminal, kept
B4: GFP-Rho3T27N (GDP-locked variant of Rho3 fused to GFP) (protein, UniProt O13928 1-205)
chain: B1 chain with T27N

How the values were obtained:
Experiment in all cases: pull-down; lysates of S. pombe cells expressing GFP-Rho3 or its mutants incubated with purified GST-fused adaptin subunit or control GST; precipitated by glutathione beads, SDS-PAGE, anti-GFP and anti-GST blots; only the target purified
[1] = molecular target: T1, GST-Aps1 (purified full-length Aps1 fused to GST) (S. pombe)
[2] = molecular target: T2, Apl4-GST (purified full-length Apl4 fused to GST) (S. pombe)
[3] = molecular target: T3, GST-Apl2 (purified full-length Apl2 fused to GST) (S. pombe)
[4] = molecular target: T4, Apm1-GST (purified full-length Apm1 fused to GST) (S. pombe)

Binder	binding [1]	binding [2]	binding [3]	binding [4]
B1	binds	binds	binds	binds
B2	–	–	–	binds weakly
B3	–	–	–	binds
B4	–	–	–	binds weakly
